# Data as given in PubChem BioAssay AID1259308 (NCATS, 2017).
# Assay: 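Candidate targets for better recombinant protein yield in mammalian cells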 (primary screen)
# Cells: human HEK293 embryonic kidney cells stably expressing firefly luciferase (HEK-CMV-Luc2-Hygro)
# Reagent: single siRNA against human genes, 0.8 pmol siRNA per well
# Timing: 72 h
# Detection: 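Reporter luminescence and viable-cell signal on separate replicate plates, given as percent of non-targeting control and median/MAD z-scores, plus per-cell luciferase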
# Scale: total luciferase, z-score and total luciferase, % of control: higher = more reporter protein produced; luciferase per cell, z-score: higher = more reporter output per viable cell; viable cells, % of control: higher = more viable cells
# Hit rule: 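An siRNA counts as active if its total luciferase robust z-score exceeds 3; genes with two or more such siRNAs out of three were retested with fresh siRNAs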
# Meaning of the calls: active = raised luciferase; inactive = no rise
# In all, the deposit lists about 59,000 reagents; below is a random part of them. About 1,510 of all reagents (2.6%) count as active. 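Calls use total luciferase alone and ignore viability, so some active siRNAs may act by altering cell number.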 Unmarked entries are inactive. Reagents against one gene are numbered here.
"total luciferase, z-score","total luciferase, % of control","luciferase per cell, z-score","viable cells, % of control",Gene,siRNA no.
0.921,100,2.55,57.2,SYP,1
0.16,85.1,-0.119,98.1,SYP,2
0.604,93.9,0.593,89.8,SYP,3
-1.07,60.6,-0.907,85.9,EXOC6,1
0.412,90.1,0.0498,99.3,EXOC6,2
0.342,88.7,-0.00651,99.3,EXOC6,3
0.297,87.8,-0.223,104,CTRL,1
-0.481,72.3,-0.142,83.9,CTRL,2
3.1 (active),143,1.79,100,CTRL,3
0.288,87.6,-0.334,107,GALR1,1
0.015,82.2,-0.618,108,GALR1,2
0.0769,83.4,0.635,78.9,GALR1,3
0.348,88.8,0.85,79.3,STS,1
1.08,103,0.704,95.9,STS,2
-0.0649,80.6,-1.01,117,STS,3
-0.715,67.7,-1.01,98.6,H6PD,1
-0.942,63.1,-1.23,97.5,H6PD,2
-0.965,62.7,0.322,64.4,H6PD,3
0.338,88.6,0.251,92.7,SLC28A3,1
-0.534,71.3,-0.471,90.1,SLC28A3,2
-0.726,67.5,-1.03,99,SLC28A3,3
0.399,89.8,-0.0578,102,DNAH2,1
2.85,139,1.73,98.2,DNAH2,2
-0.307,75.8,-0.588,98.9,DNAH2,3
1.56,113,1.51,84.7,EFCAB9,1
-1.93,43.5,-1.15,65.7,EFCAB9,2
1.59,113,0.809,102,EFCAB9,3
-0.303,75.9,-0.32,92.2,CHST8,1
0.717,96.2,0.919,84.3,CHST8,2
-0.657,68.8,-0.648,91.2,CHST8,3
1.22,106,0.832,95.3,ARL2BP,1
0.223,86.3,-0.102,99.1,ARL2BP,2
-1.96,42.9,-2.24,86.5,ARL2BP,3
-1.05,61,-1.45,99.8,CDCA2,1
0.628,94.4,0.423,94.3,CDCA2,2
0.413,90.1,-0.491,115,CDCA2,3
1.06,103,1.73,72.9,RBBP4,1
0.367,89.2,1.52,66.7,RBBP4,2
0.748,96.8,0.00763,108,RBBP4,3
-0.422,73.5,-0.295,88.8,ZNF175,1
1.26,107,0.819,96.4,ZNF175,2
0.574,93.3,0.101,102,ZNF175,3
-0.168,78.5,0.345,80.2,CRHR2,1
2.99,141,2.66,78.4,CRHR2,2
-0.44,73.1,-0.337,89.3,CRHR2,3
-2.01,41.9,-2.5,90.3,ASAH2,1
0.194,85.7,0.391,86.4,ASAH2,2
-0.00833,81.7,0.0889,89.2,ASAH2,3
2.87,139,2.23,86.2,PRSS42P,1
-1.4,54.1,-1.34,86,PRSS42P,2
0.0462,82.8,-0.361,102,PRSS42P,3
0.0269,82.4,0.322,84.6,CYP4F12,1
-1.52,51.6,0.734,47.6,CYP4F12,2
-0.362,74.7,-0.131,86.4,CYP4F12,3
0.0856,83.6,-0.0924,95.7,SNRPN,1
0.26,87.1,0.359,88.5,SNRPN,2
-0.0538,80.8,2.97,41.4,SNRPN,3
-0.103,79.8,-0.477,101,SNRPN,4
-0.456,72.8,-0.753,99.2,SNRPN,5
-0.652,68.9,-0.582,89.8,SNRPN,6
0.944,101,0.834,90.3,SNRPN,7
0.385,89.5,0.702,83.2,SNRPN,8
-0.148,78.9,-0.773,108,SNRPN,9
-1.03,61.5,-0.565,79.7,PTGIS,1
-0.583,70.3,-1.14,106,PTGIS,2
0.0218,82.3,-0.446,103,PTGIS,3
0.492,91.7,-0.0279,103,CDC45,1
0.96,101,1.25,81.2,CDC45,2
-0.928,63.4,-0.847,88.6,CDC45,3
-0.484,72.3,-0.494,92,GOLIM4,1
-0.0878,80.1,-0.398,99.4,GOLIM4,2
0.598,93.8,0.753,85.9,GOLIM4,3
-0.681,68.3,-0.369,84.2,CT55,1
-1.94,43.3,-2.66,97.5,CT55,2
0.293,87.7,-0.0011,98,CT55,3
